Screen size: about 400,000 compounds; about 13,000 (3.2%) were called active. The shares of active, inactive and inconclusive entries below differ from those in the screen. Calls follow the shape of the dose curve; as a rule, active = well fitted cell-killing curve with a large enough effect; inconclusive = small, poorly fitted or top-dose-only effect, or effect the other way; inactive = flat fitted curve, though single readings scatter. Potencies beside an inconclusive call are fits to weak or partial responses and may not hold up.
Experiment: qHTS assay for MDR1-selective chemotherapeutics: Primary screen using the drug-selected MDR subline cells KB-V1; also: nearly all actives have a fitted effect of over 60% in size
Settings: KB-V1 MDR cells viability, CellTiter-Glo, 72 h; activity change, negative = cytotoxicity: at 46.1 µM (top of the series)
Procedure, shortened: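 Cytotoxicity via CellTiter-Glo luminescence after 72 h compound exposure at 37 degrees C. Cells: drug-selected KB-V1 line, DMEM phenol-red free plus 10% FBS. Compounds tested at multiple concentrations; normalized data fitted to concentration-effect curves.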
% is scaled to controls: 0 for no effect and ±100 for the full control effect; potency is read from the fitted curve at half-maximal effect.

Row | SMILES | Potency | activity change, negative = cytotoxicity
1 | Cc1ccc(C)c(S(=O)(=O)N2CCN(C(=O)CNC(=O)c3ccc4ccccc4c3)CC2)c1 | active: 23.1 µM | –
2 | N#C/C(=C\c1ccc(-c2ccc(F)cc2F)o1)c1nc2ccccc2[nH]1 | inconclusive: 29.1 µM [cytotoxic, partial curve, poor fit] | –
3 | COc1ccc(NS(=O)(=O)c2cc(NC(=O)c3ccco3)ccc2N2CCCC2)cc1 | inconclusive: 18.4 µM [cytotoxic, single point] | –
4 | COc1ccc(OC)c(NC(=O)Cn2c(CCC(=O)O)ccc2-c2ccc(C)cc2)c1 | inconclusive: 23.1 µM [rising, single point] | –
5 | CCN(Cc1ccc(OC)c(F)c1)C(=O)CCl | inconclusive: 29.1 µM [cytotoxic, single point] | –
6 | COc1ccc2cc(CN(CC3CCCO3)C(=S)NCc3ccco3)c(=O)[nH]c2c1 (stereo unspecified) | inconclusive: 20.6 µM [cytotoxic, single point] | –
7 | Cn1cc(/C=C/C(=O)N2CCCC(C(=O)c3ccc(C(F)(F)F)cc3)C2)cn1 (stereo unspecified) | inconclusive: 20.6 µM [cytotoxic, single point] | –
8 | O=C(CN1C(=O)CSc2ccccc21)NC1CCCC1 | inconclusive: 20.6 µM [cytotoxic, single point] | –
9 | O=C(Cn1cnc2c(nnn2Cc2ccccc2F)c1=O)N1CCN(c2ccccc2)CC1 | – | inactive: -16.3%
10 | COc1ccccc1C(=O)Nc1ccc(S(=O)(=O)N2CCc3ccccc32)cc1 | inconclusive: 18.4 µM [cytotoxic, single point] | –
11 | COc1ccc(CCNC(=O)CSc2nc(=O)n3cc(C)ccc3n2)cc1OC | inconclusive: 16.4 µM [cytotoxic, single point] | –
12 | CCc1nnc2c(NCCc3ccc(OC)c(OC)c3)nc3ccccc3n12 | inconclusive: 18.4 µM [cytotoxic, single point] | –
13 | Cc1ccc(C(=O)OCC(=O)NCc2ccco2)cc1C | inconclusive: 1.46 µM [rising, full curve, poor fit] | –
14 | COc1ccc(-c2csc(NC(=O)c3ccccc3S(C)(=O)=O)n2)cc1 | inconclusive: 18.4 µM [cytotoxic, single point] | –
15 | Cc1ccc2cc(C#N)c(SCC(=O)N3CCCC3)nc2c1 | inconclusive: 2.59 µM [cytotoxic, full curve] | –
16 | CCCCn1c(-c2cccc(Br)c2)nc2cc3[nH]c(=O)c(C(C)C)nc3cc21 | – | inactive: 3.22%
17 | CC(=O)Nc1cccc(NC(=O)/C=C/c2ccc(S(=O)(=O)N3CCOCC3)cc2)c1 | – | inactive: 0%
18 | CCN(CC)CCOC(=O)C(c1ccccc1)C1CCCCC1 (stereo unspecified) | inconclusive: 16.4 µM [cytotoxic, partial curve, poor fit] | –
19 | O=C(N/N=C/c1cc([N+](=O)[O-])ccc1O)c1ccncc1 | inconclusive: 23.1 µM [cytotoxic, partial curve, poor fit] | –
20 | COc1cc(Cl)c(CN2CCC(CCC(=O)NC3CC3)CC2)cc1OC | – | inactive: 6.89%
21 | Cc1ccc(-c2nc(-c3cccnc3)sc2CC(=O)Nc2ccc(C)c(Cl)c2)cc1 | active: 8.2 µM | –
22 | COc1cc(CCCN2CCNC[C@@H]2C(C)O)cc(OC)c1OC (stereo partly specified) | inconclusive: 20.6 µM [rising, single point] | –
23 | C=CCn1c(O)c(C(CC)=NCCN2CCOCC2)c(=O)[nH]c1=O | – | inactive: 6.02%
24 | COc1ccc(-c2onc(C)c2C)cc1S(=O)(=O)NCc1ccc(Br)cc1 | inconclusive: 18.4 µM [cytotoxic, single point] | –

Row | SMILES | Potency | activity change, negative = cytotoxicity
25 | CSc1ccc(Cn2c(C)c(C(=O)NCc3ccccc3C(F)(F)F)sc2=O)cc1 | inconclusive: 20.6 µM [cytotoxic, partial curve] | –
26 | CC(C)OCCCNC(=O)CN1C(=O)CSc2ccc(S(=O)(=O)N3CCCCC3)cc21 | inconclusive: 29.1 µM [cytotoxic, single point] | –
27 | COc1ccc([N+](=O)[O-])cc1NCC(=O)Nc1cc(S(=O)(=O)N2CCCCC2)ccc1C | inconclusive: 29.1 µM [cytotoxic, single point] | –
28 | NC(=O)c1ccc(SCC(=O)NC2CCCCC2)c([N+](=O)[O-])c1 | inconclusive: 29.1 µM [rising, single point] | –
29 | CCCNC(=O)COC(=O)c1cccnc1Nc1ccccc1F | inconclusive: 20.6 µM [cytotoxic, partial curve] | –
30 | CCN=C1S/C(=C\c2ccc(-c3cccc(C(=O)O)c3)o2)C(=O)N1CC | – | inactive: 4.24%
31 | O=C(Nc1ccc2c(c1)N(C1CCCC1)C(=O)c1ccccc1S2)c1cccc(F)c1 | inconclusive: 20.6 µM [cytotoxic, partial curve, poor fit] | –
32 | O=C1CC(c2nc(-c3cccc(Cl)c3)no2)CN1c1ccc2c(c1)OCCO2 (stereo unspecified) | – | inconclusive: -33%
33 | COc1ccc2[nH]c(=O)c(CN(Cc3ccccc3)Cc3nnnn3CC3CCCO3)cc2c1 (stereo unspecified) | – | inactive: -22.3%
34 | CC(=O)c1c(NC(=O)c2ccccc2)[nH]c(-c2ccccc2)nc1=S | – | inactive: -6.64%
35 | COc1c(N2CCN(C(=S)NCc3ccccc3)C(C)C2)c(F)cc2c(=O)c(C(=O)O)cn(C3CC3)c12 (stereo unspecified) | – | inactive: 0%
36 | CCCCC12CN3CC(C)(CN(C1)C31C(=O)N(C)c3ccc(C)cc31)C2=O (stereo unspecified) | active: 9.2 µM | –
37 | CCOC(=O)c1c(C)c(C(=O)N2CCN(c3cccc(Cl)c3)CC2)c(C)n1C | active: 10.3 µM | –
38 | Clc1ccc(-c2cn3c(n2)CCC3)cc1 | inconclusive: 20.6 µM [cytotoxic, partial curve] | –
39 | Cc1ccc(S(=O)(=O)c2cc3c(=O)n4ccccc4nc3n(C)c2=N)cc1C | – | inactive: 7.85%
40 | N=c1sccn1CC(=O)N1N=C(c2ccc(Cl)cc2)CC1c1ccco1 (stereo unspecified) | inconclusive: 29.1 µM [cytotoxic, single point] | –
41 | SCc1nc2ccccc2[nH]1 | inconclusive: 29.1 µM [rising, single point] | –
42 | O=C(c1ccccc1)c1nn(-c2ccc(Cl)cc2)cc1C(=O)c1cc2ccccc2oc1=O | active: 7.31 µM | –
43 | Cc1ccnc(NC(=O)CCC(=O)c2cccs2)c1 | inconclusive: 18.4 µM [cytotoxic, single point] | –
44 | CCOc1ccc(CN(C)C(=O)[C@H](Cc2ccccc2)NC(=O)OCc2ccccc2)cc1OC | active: 10.3 µM | –
45 | CCCc1nn2c(=O)cc(COc3ccc(/C=C(\C#N)C(=O)Nc4ccc(F)cc4)cc3)nc2s1 | inconclusive: 29.1 µM [rising, single point] | –
46 | Cc1ccc(S(=O)(=O)N(C)c2ccc(OC(=O)COc3ccccc3)cc2)cc1 | inconclusive: 29.1 µM [cytotoxic, single point] | –
47 | Cc1ccc(OCC(=O)Nc2ccc(F)cc2)c([N+](=O)[O-])n1 | inconclusive: 29.1 µM [rising, single point] | –
48 | CCOCCCN1CN(S(=O)(=O)c2ccc(Cl)cc2)c2nc3ccccc3nc21 | inconclusive: 25.9 µM [cytotoxic, single point] | –

Row | SMILES | Potency | activity change, negative = cytotoxicity
49 | Cc1ccc(C)c(OCCn2cc(/C=C(/C#N)C(=O)NCC3CCCO3)c3ccccc32)c1 (stereo unspecified) | active: 14.6 µM | –
50 | CCC(=O)N1c2ccc(S(=O)(=O)N(CCO)Cc3ccccc3)cc2CC1C (stereo unspecified) | – | inactive: 0%
51 | CCCN1C2CCCC1CC(NC(=S)Nc1cccc(C)c1C)C2 (stereo unspecified) | – | inactive: -10.2%
52 | Cc1ccsc1C(=O)NNC(=O)C1CCCCC1C(=O)O (stereo unspecified) | inconclusive: 29.1 µM [rising, single point] | –
53 | Cc1ccc(S(=O)(=O)Nc2nc(C)cc(N/N=C/c3ccc(O)cc3)n2)cc1 | inconclusive: 18.4 µM [rising, partial curve, poor fit] | –
54 | Cc1ccc(C(=O)CC(=O)COc2ccc(Cl)cc2C)cc1 | inconclusive: 29.1 µM [cytotoxic, single point] | –
55 | COC(=O)CCCNC(=O)c1ccc2oc(CCCc3ccccc3)nc2c1 | inconclusive: 16.4 µM [cytotoxic, single point] | –
56 | O=C(NCCCN1CCCC1=O)c1cc(-c2ccc3c(c2)OCO3)nc2ccccc12 | inconclusive: 9.2 µM [cytotoxic, partial curve] | –
57 | COc1ccc(C(=O)NC(=S)Nc2ccccc2F)cc1 | – | inactive: -21.8%
58 | CC/C(=N\NC(=O)C(N)=O)c1ccccc1O | inconclusive: 14.6 µM [cytotoxic, partial curve] | –
59 | CCOc1ccc(NC(=O)COC(=O)C2CC2C)cc1 (stereo unspecified) | inconclusive: 9.2 µM [rising, partial curve, poor fit] | –
60 | O=C1C(=O)c2cccnc2-c2ncccc21 | active: 18.4 µM | –
61 | CCN1CCN(c2ccc(S(=O)(=O)N3CCOCC3)cc2NC(=O)/C=C/c2ccc([N+](=O)[O-])cc2)CC1 | – | inactive: -13.4%
62 | CCCC(=O)Nc1nc(-c2ccccc2)ns1 | inconclusive: 18.4 µM [cytotoxic, single point] | –
63 | O=C(N/N=C\c1ccc(Cl)s1)c1cccs1 | inconclusive: 28.2 µM [cytotoxic, single point] | –
64 | Cc1cccc(C(=O)N[C@H](C(=O)NCc2cccs2)C(C)C)c1 | active: 9.2 µM | –
65 | Cc1ccc2sc(N(CCCN(C)C)C(=O)CN3C(=O)c4ccccc4C3=O)nc2c1C | – | inactive: 21.9%
66 | Cc1ccc(OCC(=O)Nc2cccc(-c3nnc(-c4ccccc4)o3)c2)c(C)c1 | inconclusive: 1.16 µM [cytotoxic, full curve] | –
67 | N#CCC(=O)NCC1(c2ccccc2)CCCC1 | – | inactive: 19.7%
68 | COc1ccc(CN2C(=O)c3cccnc3C2Nc2ccc(OC)c(Cl)c2)cc1 (stereo unspecified) | active: 14.6 µM | –
69 | COc1cc(C(C)=O)ccc1Oc1ncnc2c1cnn2-c1ccccc1 | active: 14.6 µM | –
70 | COc1ccc(CNC(=O)C2(C)Cc3c(-c4ccc5c(c4)OCO5)ccnc3O2)cc1OC (stereo unspecified) | – | inactive: -21.2%
71 | O=C(Nc1ccc(Cl)c(Cl)c1)Nc1ccon1 | active: 7.31 µM | –

Looked up above.
Value of `Cc1ccc(S(=O)(=O)N(C)c2ccc(OC(=O)COc3ccccc3)cc2)cc1` under Potency: inconclusive: 29.1 µM [cytotoxic, single point]
Value of `COC(=O)CCCNC(=O)c1ccc2oc(CCCc3ccccc3)nc2c1` under Potency: inconclusive: 16.4 µM [cytotoxic, single point]
Value of `Cc1ccc(C)c(OCCn2cc(/C=C(/C#N)C(=O)NCC3CCCO3)c3ccccc32)c1` (stereo unspecified) under Potency: active: 14.6 µM
